In patent US20070042437A1:
These are yes or no findings as the source states them, for the method shown. Some results given as binding are weak or reduced against the parent protein; the word gives no strength.

Protein sequences, listed by entry. Tags and fused reporters are not part of them. Residues count along the entry.
UniProt P11717, residues 41-2491: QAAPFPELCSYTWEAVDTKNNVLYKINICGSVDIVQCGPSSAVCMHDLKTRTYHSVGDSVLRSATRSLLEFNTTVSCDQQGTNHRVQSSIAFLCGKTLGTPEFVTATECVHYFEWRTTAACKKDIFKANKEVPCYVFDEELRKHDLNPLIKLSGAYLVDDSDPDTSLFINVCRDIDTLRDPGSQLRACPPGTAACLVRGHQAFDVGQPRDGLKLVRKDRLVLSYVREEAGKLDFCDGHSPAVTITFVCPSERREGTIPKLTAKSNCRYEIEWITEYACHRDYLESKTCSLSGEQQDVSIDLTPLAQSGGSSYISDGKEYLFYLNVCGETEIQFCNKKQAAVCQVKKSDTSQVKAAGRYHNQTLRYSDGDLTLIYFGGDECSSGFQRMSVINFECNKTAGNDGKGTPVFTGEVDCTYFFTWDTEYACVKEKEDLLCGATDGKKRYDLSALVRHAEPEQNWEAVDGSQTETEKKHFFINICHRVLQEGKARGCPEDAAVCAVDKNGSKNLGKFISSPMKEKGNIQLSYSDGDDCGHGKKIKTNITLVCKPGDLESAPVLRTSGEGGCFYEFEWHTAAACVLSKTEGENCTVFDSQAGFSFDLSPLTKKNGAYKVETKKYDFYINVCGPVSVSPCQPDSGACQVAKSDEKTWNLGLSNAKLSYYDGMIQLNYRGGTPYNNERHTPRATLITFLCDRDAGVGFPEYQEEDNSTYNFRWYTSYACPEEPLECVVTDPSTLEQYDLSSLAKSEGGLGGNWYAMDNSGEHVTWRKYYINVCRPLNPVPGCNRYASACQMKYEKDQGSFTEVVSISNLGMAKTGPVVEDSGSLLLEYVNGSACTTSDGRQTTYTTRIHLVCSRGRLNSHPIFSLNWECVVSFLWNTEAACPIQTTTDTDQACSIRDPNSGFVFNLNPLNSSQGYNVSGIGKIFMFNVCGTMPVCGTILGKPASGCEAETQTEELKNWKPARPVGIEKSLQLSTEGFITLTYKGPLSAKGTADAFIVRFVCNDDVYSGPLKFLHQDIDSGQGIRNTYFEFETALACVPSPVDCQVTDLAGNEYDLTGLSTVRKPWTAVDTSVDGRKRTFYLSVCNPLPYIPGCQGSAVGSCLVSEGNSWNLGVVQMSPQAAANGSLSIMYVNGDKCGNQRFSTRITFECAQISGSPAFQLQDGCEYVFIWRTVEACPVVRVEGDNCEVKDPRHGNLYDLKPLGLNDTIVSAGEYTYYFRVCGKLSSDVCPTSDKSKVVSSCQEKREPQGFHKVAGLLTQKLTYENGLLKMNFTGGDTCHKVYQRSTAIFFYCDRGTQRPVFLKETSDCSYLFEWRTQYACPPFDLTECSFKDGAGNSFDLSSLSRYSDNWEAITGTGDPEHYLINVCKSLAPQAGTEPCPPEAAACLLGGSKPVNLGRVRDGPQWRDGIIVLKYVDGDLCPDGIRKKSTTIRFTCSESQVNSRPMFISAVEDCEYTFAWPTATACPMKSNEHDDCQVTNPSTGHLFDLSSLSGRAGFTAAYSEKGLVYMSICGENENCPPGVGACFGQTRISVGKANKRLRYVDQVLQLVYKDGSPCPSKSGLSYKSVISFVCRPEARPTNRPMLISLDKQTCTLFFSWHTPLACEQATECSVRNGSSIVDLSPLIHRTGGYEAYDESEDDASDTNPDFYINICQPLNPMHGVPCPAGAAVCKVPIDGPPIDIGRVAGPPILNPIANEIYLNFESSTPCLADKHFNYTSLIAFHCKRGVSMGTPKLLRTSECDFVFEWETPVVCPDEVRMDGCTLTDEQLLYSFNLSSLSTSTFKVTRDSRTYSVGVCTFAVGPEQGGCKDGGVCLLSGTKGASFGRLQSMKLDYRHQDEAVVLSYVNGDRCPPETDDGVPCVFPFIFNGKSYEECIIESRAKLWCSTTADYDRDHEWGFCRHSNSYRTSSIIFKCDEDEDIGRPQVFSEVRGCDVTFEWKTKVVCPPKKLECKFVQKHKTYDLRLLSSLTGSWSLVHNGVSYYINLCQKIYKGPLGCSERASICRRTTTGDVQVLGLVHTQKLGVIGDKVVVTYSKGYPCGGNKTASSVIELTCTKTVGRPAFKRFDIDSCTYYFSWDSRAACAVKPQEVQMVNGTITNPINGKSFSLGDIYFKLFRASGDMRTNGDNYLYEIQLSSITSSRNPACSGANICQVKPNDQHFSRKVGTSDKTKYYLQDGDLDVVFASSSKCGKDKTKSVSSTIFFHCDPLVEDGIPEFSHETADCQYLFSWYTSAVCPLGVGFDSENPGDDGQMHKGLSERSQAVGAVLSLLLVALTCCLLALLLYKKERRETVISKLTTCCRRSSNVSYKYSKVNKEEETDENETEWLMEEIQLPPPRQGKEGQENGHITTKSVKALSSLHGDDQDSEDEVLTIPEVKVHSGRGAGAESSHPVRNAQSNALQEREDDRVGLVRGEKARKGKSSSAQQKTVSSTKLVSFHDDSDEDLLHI
UniProt P24062, residues 31-1370: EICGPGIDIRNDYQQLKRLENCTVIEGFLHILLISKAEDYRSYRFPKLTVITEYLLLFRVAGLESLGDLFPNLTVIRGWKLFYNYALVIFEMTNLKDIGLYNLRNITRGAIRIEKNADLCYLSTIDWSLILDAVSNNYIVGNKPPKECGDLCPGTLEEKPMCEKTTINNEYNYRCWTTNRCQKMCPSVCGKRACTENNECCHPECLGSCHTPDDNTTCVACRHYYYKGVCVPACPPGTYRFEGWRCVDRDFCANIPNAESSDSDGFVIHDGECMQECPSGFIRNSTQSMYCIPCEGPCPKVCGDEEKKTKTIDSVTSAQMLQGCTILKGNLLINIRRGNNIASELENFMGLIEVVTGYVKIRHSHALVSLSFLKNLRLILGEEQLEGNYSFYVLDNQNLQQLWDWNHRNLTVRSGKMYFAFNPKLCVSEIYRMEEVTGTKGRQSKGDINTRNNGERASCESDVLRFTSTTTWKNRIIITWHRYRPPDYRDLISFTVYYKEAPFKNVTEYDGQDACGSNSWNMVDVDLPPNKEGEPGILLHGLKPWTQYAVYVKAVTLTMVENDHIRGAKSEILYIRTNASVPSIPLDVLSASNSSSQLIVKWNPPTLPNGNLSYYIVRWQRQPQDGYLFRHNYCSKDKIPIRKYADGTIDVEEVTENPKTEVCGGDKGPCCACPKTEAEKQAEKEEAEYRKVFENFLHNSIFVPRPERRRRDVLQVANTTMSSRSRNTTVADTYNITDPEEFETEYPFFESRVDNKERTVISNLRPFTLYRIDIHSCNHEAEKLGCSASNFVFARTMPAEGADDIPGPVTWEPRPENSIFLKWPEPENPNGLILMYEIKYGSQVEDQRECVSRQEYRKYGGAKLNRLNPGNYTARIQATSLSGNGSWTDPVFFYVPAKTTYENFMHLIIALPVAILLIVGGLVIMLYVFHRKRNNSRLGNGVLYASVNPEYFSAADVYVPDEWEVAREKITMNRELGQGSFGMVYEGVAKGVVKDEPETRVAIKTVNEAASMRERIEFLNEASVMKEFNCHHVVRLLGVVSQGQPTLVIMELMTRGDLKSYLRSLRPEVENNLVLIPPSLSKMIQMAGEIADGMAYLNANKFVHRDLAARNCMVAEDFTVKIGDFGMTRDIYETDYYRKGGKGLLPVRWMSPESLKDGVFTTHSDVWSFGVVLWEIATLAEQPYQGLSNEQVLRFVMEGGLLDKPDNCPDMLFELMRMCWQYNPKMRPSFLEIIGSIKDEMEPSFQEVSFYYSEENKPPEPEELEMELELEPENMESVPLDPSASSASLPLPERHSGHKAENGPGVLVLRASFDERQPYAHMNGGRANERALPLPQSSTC
UniProt P01344, residues 25-91: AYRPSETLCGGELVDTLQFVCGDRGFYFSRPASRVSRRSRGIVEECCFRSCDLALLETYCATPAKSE
UniProt P05019, residues 49-118: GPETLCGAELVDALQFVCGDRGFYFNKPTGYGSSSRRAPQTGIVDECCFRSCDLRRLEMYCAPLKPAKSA

Tests used:
[1] = target: IGF-II receptor (human brain, postmortem frontal lobe membrane extracts) (human) (UniProt P11717); experiment: saturation binding, human frontal lobe membrane extracts
[2] = target: IGF-II receptor (rat brain membrane extracts) (rat); experiment: competitive saturation binding, rat brain membrane extracts
[3] = target: IGF-II receptor (rat brain membrane extracts) (rat); experiment: equilibrium binding, rat temporal lobe membrane extracts (FIG. 20C)
[4] = target: IGF-II receptor (human brain, postmortem frontal lobe membrane extracts) (human) (UniProt P11717); experiment: equilibrium binding, human frontal lobe membrane extracts (FIG. 12C)
[5] = target: IGF-II receptor (rat brain membrane extracts) (rat); experiment: equilibrium binding, 50 pM [125I]-IGF-II, rat brain membrane extracts
[6] = target: IGF-II receptor (human brain, postmortem frontal lobe membrane extracts) (human) (UniProt P11717); experiment: saturation binding, human frontal lobe membrane extracts (FIGS. 13I-13L)
[7] = target: IGF-II receptor (human brain, postmortem frontal lobe membrane extracts) (human) (UniProt P11717); experiment: saturation binding / Scatchard analysis, human frontal lobe membrane extracts
[8] = target: IGF-II receptor (rat brain membrane extracts) (rat); experiment: equilibrium binding, 50 pM tracer, rat brain membrane proteins (FIGS. 29G-29I)
[9] = target: IGF-II receptor (human brain, postmortem frontal lobe membrane extracts) (human) (UniProt P11717); experiment: equilibrium binding, 50 pM [125I]-IGF-II, human frontal lobe membrane extracts
[10] = target: IGF-II receptor (rat brain membrane extracts) (rat); experiment: competitive equilibrium binding, [125I]-IGF-II, rat temporal lobe membrane extracts
[11] = target: IGF-II receptor (rat brain membrane extracts) (rat); experiment: saturation binding, 0.5-500 pM tracer, rat brain membrane protein extracts (FIG. 30)
[12] = target: IGF-I receptor (rat brain membrane extracts) (rat) (UniProt P24062); experiment: competitive saturation binding, rat brain membrane extracts
[13] = target: IGF-I receptor (rat brain membrane extracts) (rat) (UniProt P24062); experiment: equilibrium binding, rat temporal lobe membrane extracts (FIG. 20B)
[14] = target: IGF-I receptor (rat brain membrane extracts) (rat) (UniProt P24062); experiment: equilibrium binding, 50 pM [125I]-IGF-I, rat brain membrane extracts
[15] = target: IGF-I receptor (rat brain membrane extracts) (rat) (UniProt P24062); experiment: equilibrium binding, 50 pM tracer, rat brain membrane proteins (FIGS. 29D-29F)
[16] = target: IGF-I receptor (rat brain membrane extracts) (rat) (UniProt P24062); experiment: competitive equilibrium binding, [125I]-IGF-I, rat temporal lobe membrane extracts
[17] = target: IGF-I receptor (rat brain membrane extracts) (rat) (UniProt P24062); experiment: saturation binding, 0.5-500 pM tracer, rat brain membrane protein extracts (FIG. 30)

Row | binding [1] | binding [2] | binding [3] | binding [4] | binding [5] | binding [6] | binding [7] | binding [8] | binding [9] | binding [10] | binding [11] | binding [12] | binding [13] | binding [14] | binding [15] | binding [16] | binding [17] | Substance
1 | binds | binds | binds | binds | binds | binds | binds | binds | binds | binds | binds | – | – | – | – | – | – | Human recombinant [125I] IGF-II (from UniProt P01344 25-91) (ligand)
2 | – | – | – | – | – | – | – | – | – | – | – | binds | binds | binds | binds | binds | binds | Human recombinant [125I] IGF-I (from UniProt P05019 49-118) (ligand)
